Some of the results follow. Repeats are few or missing, and single values can be far off.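 Imaging used 1,536-well plates; nuclei positive for cleaved PARP by antibody were divided by total DNA-stained nuclei to yield the apoptosis fraction. Doses for screening kept most cells viable, and cell lines differ markedly in resting and induced cleaved-PARP levels.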
What was measured:
Assay in all cases: cleaved PARP positive nuclei fraction relative to DMSO control; melanoma cells; higher = more apoptosis
Details in all cases: library dose: low library concentration; 72 h
501Mel = test system: 501Mel
A101D = test system: A101D
A2058 = test system: A2058
A375 = test system: A375
C32 = test system: C32
CBRC008 = test system: CBRC008 (line from a melanoma biopsy)
CBRC013 = test system: CBRC013 (line from a melanoma biopsy)
CBRC014 = test system: CBRC014 (line from a melanoma biopsy)
CBRC016 = test system: CBRC016 (line from a melanoma biopsy)
CBRC017 = test system: CBRC017 (line from a melanoma biopsy)

| SMILES | cleaved PARP positive nuclei fraction (501Mel) [%] | cleaved PARP positive nuclei fraction (A101D) [%] | cleaved PARP positive nuclei fraction (A2058) [%] | cleaved PARP positive nuclei fraction (A375) [%] | cleaved PARP positive nuclei fraction (C32) [%] | cleaved PARP positive nuclei fraction (CBRC008) [%] | cleaved PARP positive nuclei fraction (CBRC013) [%] | cleaved PARP positive nuclei fraction (CBRC014) [%] | cleaved PARP positive nuclei fraction (CBRC016) [%] | cleaved PARP positive nuclei fraction (CBRC017) [%] |
| --- | --- | --- | --- | --- | --- | --- | --- | --- | --- | --- |
| Cc1cc(Nc2cc(N3CCN(C)CC3)nc(Sc3ccc(NC(=O)C4CC4)cc3)n2)n[nH]1 [Tozasertib] + COc1cc(Nc2ncc(F)c(Nc3ccc4c(n3)NC(=O)C(C)(C)O4)n2)cc(OC)c1OC [Tamatinib] (first compound 0.006 µM, partner dose 0.4 µM) | 277 | 26.1 | 54.8 | 212 | 82.1 | 252 | 164 | 88.5 | 102 | 115 |
| CC[C@]1(O)C[C@H]2CN(CCc3c([nH]c4ccccc34)[C@@](C(=O)OC)(c3cc4c(cc3OC)N(C=O)[C@H]3[C@@](O)(C(=O)OC)[C@H](OC(C)=O)[C@]5(CC)C=CCN6CC[C@]43[C@@H]65)C2)C1 [vincristine] + Cn1cncc1[C@@](N)(c1ccc(Cl)cc1)c1ccc2c(c1)c(-c1cccc(Cl)c1)cc(=O)n2C [tipifarnib] (first compound 0.0001 µM, partner dose 0.01 µM) | 230 | 116 | 1640 | 125 | 237 | 141 | 182 | 81.7 | 135 | 139 |
| COc1cc([C@@H]2c3cc4c(cc3[C@@H](O[C@@H]3O[C@@H]5CO[C@@H](C)O[C@H]5[C@H](O)[C@H]3O)[C@H]3COC(=O)[C@H]23)OCO4)cc(OC)c1O [etoposide] + CN(NC(=O)CC(=O)NN(C)C(=S)c1ccccc1)C(=S)c1ccccc1 [STA4783] (first compound 0.02 µM, partner dose 0.006 µM) | 179 | 24.1 | 177 | 5370 | 175 | 2240 | 94.9 | 619 | 137 | 271 |
| O=c1[nH]nc(Sc2ncc([N+](=O)[O-])s2)n1-c1ccc2c(c1)OCCO2 + C[C@@H]1CCN(C(=O)CC#N)C[C@@H]1N(C)c1ncnc2[nH]ccc12 [CP690550] (first compound 0.2 µM, partner dose 1 µM) | 80.5 | 82.3 | 70.8 | 278 | 61 | 33.2 | 123 | 85.3 | 128 | 116 |
| Cc1cn(-c2cc(NC(=O)c3ccc(C)c(Nc4nccc(-c5cccnc5)n4)c3)cc(C(F)(F)F)c2)cn1 [nilotinib] + C=CCn1c(=O)c2cnc(Nc3ccc(N4CCN(C)CC4)cc3)nc2n1-c1cccc(C(C)(C)O)n1 [MK1775] (first compound 0.2 µM, partner dose 0.02 µM) | 98.8 | 281 | 95.6 | 84.7 | 88.5 | 37.1 | 211 | 62.3 | 251 | 89.7 |
| Cc1ccc(Nc2nccc(N(C)c3ccc4c(C)n(C)nc4c3)n2)cc1S(N)(=O)=O [Pazopanib] + COc1cc(Nc2ncc(F)c(Nc3ccc4c(n3)NC(=O)C(C)(C)O4)n2)cc(OC)c1OC [Tamatinib] (first compound 0.4 µM, partner dose 0.4 µM) | 87.9 | 64.4 | 53.1 | 99.2 | 142 | 278 | 91.7 | 96.6 | 96.8 | 182 |
| CC[C@]1(O)C[C@H]2CN(CCc3c([nH]c4ccccc34)[C@@](C(=O)OC)(c3cc4c(cc3OC)N(C=O)[C@H]3[C@@](O)(C(=O)OC)[C@H](OC(C)=O)[C@]5(CC)C=CCN6CC[C@]43[C@@H]65)C2)C1 [vincristine] + OCCn1cc(-c2cnc3nnn(Cc4ccc5ncccc5c4)c3n2)cn1 [PF04217903] (first compound 0.0001 µM, partner dose 1 µM) | 97 | 188 | 108 | 130 | 208 | 70.8 | 55.7 | 89.7 | 111 | 91.5 |
| Cc1cn(-c2cc(NC(=O)c3ccc(C)c(Nc4nccc(-c5cccnc5)n4)c3)cc(C(F)(F)F)c2)cn1 [nilotinib] + COc1cc2c(Oc3ccc4[nH]c(C)cc4c3F)ncnc2cc1OCCCN1CCCC1 [cediranib] (first compound 0.2 µM, partner dose 0.4 µM) | 91.1 | 89.6 | 31.7 | 90.3 | 65.8 | 60.1 | 102 | 84 | 77.9 | 87.8 |
| CCCCCCCCCCCCCCCCCCOP(=O)([O-])OC1CC[N+](C)(C)CC1 [Perifosine] + CN(NC(=O)CC(=O)NN(C)C(=S)c1ccccc1)C(=S)c1ccccc1 [STA4783] (first compound 0.4 µM, partner dose 0.006 µM) | 196 | 110 | 94.3 | 3120 | 166 | 1190 | 173 | 533 | 81.1 | 125 |
| Cc1cn(-c2cc(NC(=O)c3ccc(C)c(Nc4nccc(-c5cccnc5)n4)c3)cc(C(F)(F)F)c2)cn1 [nilotinib] + CN(NC(=O)CC(=O)NN(C)C(=S)c1ccccc1)C(=S)c1ccccc1 [STA4783] (first compound 0.2 µM, partner dose 0.006 µM) | 451 | 98.9 | 105 | 688 | 41 | 1560 | 138 | 438 | 128 | 317 |
| CCCCCCCCCCCCCCCCCCOP(=O)([O-])OC1CC[N+](C)(C)CC1 [Perifosine] + O=C(CCCCCCC(=O)Nc1ccccc1)NO [vorinostat] (first compound 0.4 µM, partner dose 0.08 µM) | 137 | 138 | 242 | 294 | 105 | 58.7 | 102 | 72 | 240 | 74.6 |
| CCCCCCCCCCCCCCCCCCOP(=O)([O-])OC1CC[N+](C)(C)CC1 [Perifosine] + CC(C)(C)c1cnc(CSc2cnc(NC(=O)C3CCNCC3)s2)o1 [SNS-032] (first compound 0.4 µM, partner dose 0.01 µM) | 304 | 156 | 362 | 6760 | 70.6 | 241 | 128 | 175 | 190 | 285 |
| Cc1ccc(Nc2nccc(N(C)c3ccc4c(C)n(C)nc4c3)n2)cc1S(N)(=O)=O [Pazopanib] + OCCn1cc(-c2cnc3nnn(Cc4ccc5ncccc5c4)c3n2)cn1 [PF04217903] (first compound 0.4 µM, partner dose 1 µM) | 86.3 | 42.1 | 72.2 | 150 | 58.7 | 61.3 | 113 | 73.4 | 55.9 | 85.5 |
| O=C(Nc1cc(C(F)(F)F)cc(C(F)(F)F)c1)c1cc(Cl)ccc1O + CO[C@@H]1[C@H](N(C)C(=O)c2ccccc2)C[C@H]2O[C@]1(C)n1c3ccccc3c3c4c(c5c6ccccc6n2c5c31)C(=O)NC4 [Midostaurin] (first compound 0.016 µM, partner dose 0.08 µM) | 265 | 91 | 119 | 73.7 | 94.1 | 205 | 143 | 106 | 25.8 | 114 |
| O=c1[nH]nc(Sc2ncc([N+](=O)[O-])s2)n1-c1ccc2c(c1)OCCO2 + CN(C)S(=O)(=O)c1ccc2c(c1)/C(=C/c1cc3c([nH]1)CCCC3)C(=O)N2 [SU6656] (first compound 0.2 µM, partner dose 0.4 µM) | 93.1 | 97.9 | 64.8 | 59.3 | 96.8 | 67.6 | 119 | 100 | 154 | 91.8 |
| Cc1cc(Nc2cc(N3CCN(C)CC3)nc(Sc3ccc(NC(=O)C4CC4)cc3)n2)n[nH]1 [Tozasertib] + CC1(C)NC(=O)N(c2ccc([N+](=O)[O-])c(C(F)(F)F)c2)C1=O [nilutamide] (first compound 0.006 µM, partner dose 1 µM) | 86.3 | 84.3 | 178 | 65.7 | 114 | 56.7 | 107 | 78.2 | 150 | 87.9 |
| O=c1[nH]nc(Sc2ncc([N+](=O)[O-])s2)n1-c1ccc2c(c1)OCCO2 + Cc1cc(N2CCOCC2)cc2[nH]c(-c3c(NC[C@@H](O)c4cccc(Cl)c4)cc[nH]c3=O)nc12 [BMS536924] (first compound 0.2 µM, partner dose 0.2 µM) | 93.8 | 84.4 | 64.3 | 94.9 | 192 | 121 | 161 | 92.4 | 122 | 108 |
| CCCCCCCCCCCCCCCCCCOP(=O)([O-])OC1CC[N+](C)(C)CC1 [Perifosine] + CC1(C)NC(=O)N(c2ccc([N+](=O)[O-])c(C(F)(F)F)c2)C1=O [nilutamide] (first compound 0.4 µM, partner dose 1 µM) | 109 | 169 | 184 | 30700 | 173 | 263 | 132 | 118 | 134 | 86.3 |
| Cc1cc(Nc2cc(N3CCN(C)CC3)nc(Sc3ccc(NC(=O)C4CC4)cc3)n2)n[nH]1 [Tozasertib] + CO[C@@H]1[C@H](N(C)C(=O)c2ccccc2)C[C@H]2O[C@]1(C)n1c3ccccc3c3c4c(c5c6ccccc6n2c5c31)C(=O)NC4 [Midostaurin] (first compound 0.006 µM, partner dose 0.08 µM) | 144 | 138 | 38.6 | 46.4 | 66.2 | 169 | 121 | 80.5 | 34.7 | 108 |
| CCCCCCCCCCCCCCCCCCOP(=O)([O-])OC1CC[N+](C)(C)CC1 [Perifosine] + COc1cc(Nc2ncc(F)c(Nc3ccc4c(n3)NC(=O)C(C)(C)O4)n2)cc(OC)c1OC [Tamatinib] (first compound 0.4 µM, partner dose 0.4 µM) | 217 | 156 | 312 | 10400 | 198 | 532 | 134 | 111 | 136 | 123 |

Looked up above.
Cc1ccc(Nc2nccc(N(C)c3ccc4c(C)n(C)nc4c3)n2)cc1S(N)(=O)=O [Pazopanib] + OCCn1cc(-c2cnc3nnn(Cc4ccc5ncccc5c4)c3n2)cn1 [PF04217903] (first compound 0.4 µM, partner dose 1 µM) | cleaved PARP positive nuclei fraction (CBRC008) [%]: 61.3
O=c1[nH]nc(Sc2ncc([N+](=O)[O-])s2)n1-c1ccc2c(c1)OCCO2 + C[C@@H]1CCN(C(=O)CC#N)C[C@@H]1N(C)c1ncnc2[nH]ccc12 [CP690550] (first compound 0.2 µM, partner dose 1 µM) | cleaved PARP positive nuclei fraction (CBRC017) [%]: 116

Source: the supplement of paper PMC4604168 (melanoma cell lines)
